These are yes or no findings as the source states them, for the method shown. Some entries that bind do so weakly or less than the wild type.

Chains of the proteins cited; added tags and fusions are not shown. Residues count along the entry.
UniProt P25090, residues 1-342: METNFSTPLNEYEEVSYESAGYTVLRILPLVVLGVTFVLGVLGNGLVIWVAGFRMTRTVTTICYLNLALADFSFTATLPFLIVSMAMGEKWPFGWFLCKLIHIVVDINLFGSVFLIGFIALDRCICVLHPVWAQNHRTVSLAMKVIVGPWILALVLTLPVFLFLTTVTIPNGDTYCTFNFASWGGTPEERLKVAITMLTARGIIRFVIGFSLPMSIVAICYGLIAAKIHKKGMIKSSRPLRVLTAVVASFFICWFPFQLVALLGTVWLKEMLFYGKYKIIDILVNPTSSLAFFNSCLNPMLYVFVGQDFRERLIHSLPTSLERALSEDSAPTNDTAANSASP

The target in the assay is human formylpeptide receptor 2 (FPR2), residues 1-342 (human) (UniProt P25090). As to the kind of experiment: cryo-EM structure; FPR2, DNGαi1, His8-Gβ1 and Gγ2 co-expressed in Sf9; complex formed on membranes with 0.5 μM WKYMVm and apyrase, purified in detergent (LMNG/CHS/digitonin; Ni-NTA, amylose, SEC), purified scFv16 added on the resin; nucleotide-free; 3.17 Å; both purified.

B1: WKYMVm (Trp-Lys-Tyr-Met-Val-d-Met-NH2) (peptide)
peptide: WKYMVM
modifications: D-methionine at the last (6th) position; C-terminal amide (NH2)
As to B1, the binding result is listed as “binds”.

The values are drawn from publication PMC7021761 (Nature Communications, 2020).
